# In PMC5996148:
# Some of the results follow. For some of these results: The source does not settle which construct or isoform was used.
# Tests used:
# Test in all cases: protein microarray (ProtoArray v5.0), streptavidin-Alexa Fluor 647
# Details in all cases: 3'-biotin; 20 mM Tris (pH 7.5), 5 mM MgCl2, 100 mM KCl, 0.1% Tween-20, A/T-rich and random oligonucleotide blockers; temperature not stated; high values mean tight binding
# CFHR3 (human) = test system: CFHR3 (human)
# CFL2 (human) = test system: CFL2 (human)
# CGB (human) = test system: CGB (human)
# CHCHD3 (human) = test system: CHCHD3 (human)
# CHEK2 (human) = test system: CHEK2 (human)
# CHMP6 = biological target: T1, CHMP6 (UniProt Q96FZ7)
# T1 sequence: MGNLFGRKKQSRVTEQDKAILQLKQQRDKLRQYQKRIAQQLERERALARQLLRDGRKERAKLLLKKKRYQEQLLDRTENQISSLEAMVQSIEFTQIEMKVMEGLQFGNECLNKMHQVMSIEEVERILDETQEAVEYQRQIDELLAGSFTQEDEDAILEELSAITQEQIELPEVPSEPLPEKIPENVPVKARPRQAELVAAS
# CHN1 (human) = test system: CHN1 (human)
# CHRAC1 (human) = test system: CHRAC1 (human)
# CIAPIN1 (human) = test system: CIAPIN1 (human)
# CINP = CINP (UniProt Q9BW66)
sequence,measurement,setting,value
GGGAGGCTGAGGCAGG [G4-1 biotinylated (PQS2)],binding signal,CFHR3 (human),-0.306 z-score
same,binding signal,CFL2 (human),-0.298 z-score
same,binding signal,CGB (human),-0.321 z-score
same,binding signal,CHCHD3 (human),-0.337 z-score
same,binding signal,CHEK2 (human),-0.327 z-score
same,binding signal,CHMP6,7.01 z-score
same,binding signal,CHN1 (human),-0.362 z-score
same,binding signal,CHRAC1 (human),-0.336 z-score
same,binding signal,CIAPIN1 (human),-0.33 z-score
same,binding signal,CINP,-0.32 z-score
